# Data: PubChem BioAssay AID590 (National Center for Advancing Translational Sciences (NCATS), 2007)
# Hit rate of the full screen: of about 59,000 compounds, about 6,500 (11%) were called active. Inconclusive results, whose numbers are uncertain, are shown with a selection of clear calls. Rule as the data show it: active = max dye-equivalent concentration above about 10 nM; inconclusive = mostly about 1.1 nM to 9.6 nM; inactive = weaker than that.
# Assay: qHTS Assay for Spectroscopic Profiling in A350 Spectral Region
# Settings: Compound autofluorescence, 340/450 nm, Alexa 350 dye-equivalents; hits give high values
# From the text: NIH Molecular Libraries Screening Centers Network [MLSCN]
# NIH Chemical Genomics Center [NCGC]
# Occasionally, the artifactual effect may originate from the compounds own spectral or other biophysical properties which generally tend to track its assay concentration. Pre-screening/profiling the library with respect to the compounds spectral properties should help one exclude false positives early on. While the most informative fluorescent profiling data set is obtained by performing a full excitation and emission scan of each well by using a monochromator-based plate reader, such an approach is practical only on a very limited scale as scanning each well requires long time. An alternative approach, applied here, is to perform plate reader scans using selected excitation and emission wavelength pairs to generate a multidimensional relational database that correlates compound concentration and the respective relative fluorescence intensity at a given wavelength set. A standard curve of Alexa 350 (A 350) present on each plate as six-point concentration series, was used to compute a normalized fluorescence response, termed dye-equivalent concentration, for each compound at each concentration.
# NCGC Assay Protocol Summary:
# 100 mM Tris buffer, pH 8.0
# The wells in columns 1 through 4 of a Kalypsys polypropylene 1536-well compound plate were filled with standard solutions of fluorophore corresponding to the spectral region of interest. Solutions of A 350 were placed in the following wells: I1, J1: 3 mM, I2, J2: 300 uM, I3, J3: 30 uM, I4, J4: zero (DMSO), K1, L1: 3 uM, K2, L2: […], K3, L3: 300 nM, K4, L4: zero (DMSO).
# Six uL of buffer were dispensed to 1536-well Greiner black plates. Compounds and dye standards (23 nL) were transferred via Kalypsys PinTool. The plates were incubated for 15 min at room temperature, and then read on ViewLux (Perkin-Elmer) High-throughput CCD imager using 340 nm and 450 nm excitation and emission filter set.
# Keywords: NIH Roadmap, MLSCN, MLI, MLSMR, qHTS, NCGC, A350, A-350, Fluorescent Profiling.
row,SMILES,max dye-equivalent concentration
1,O=C(CN(Cc1ccco1)C(=O)c1cc(=O)[nH]c2ccccc12)Nc1ccccc1C(F)(F)F,inconclusive: 8.9 nM
2,COC(=O)c1sccc1NC(=O)c1cccnc1,inactive
3,O=C(c1ccc2c(c1)OCO2)N1CCc2ccccc2C1,inconclusive: 1.6 nM
4,CCOC(=O)c1cnc2c(C(F)(F)F)cccc2c1N1CCOCC1,inactive
5,COc1ccc(NC(=O)c2oc3ccccc3c2NC(=O)c2ccco2)c(OC)c1,active: 170 nM
6,Cc1ccc(NC(=O)CN(C)S(=O)(=O)c2cccc3nsnc23)cc1Cl,active: 46 nM
7,Cc1ccc(-n2c(CSc3nc(C)cc(C)n3)nnc2SCC(=O)Nc2nccs2)cc1,inactive
8,COc1ccc(-c2nnc3sc(-c4cccs4)nn23)cc1OC,active: 21 nM
9,CCC(C(=O)OC)n1cnc2c(nnn2-c2ccc(OC)cc2)c1=O (stereo not drawn),inconclusive: 2.7 nM
10,COc1ccccc1CNC(=O)C(C)NS(=O)(=O)c1ccc(C)cc1 (stereo not drawn),inactive
11,COCCn1c(=O)cnc2cnc(OC)nc21,active: 74 nM
12,CC(=O)C[C@H](c1ccc([N+](=O)[O-])cc1)c1c(O)c2ccccc2oc1=O,inactive
13,COc1ccc(OC)c(NC(=O)C23CCC(C)(C(=O)C2)C3(C)C)c1 (stereo not drawn),inconclusive: 5.4 nM
14,CC1(C)CC(O)C(CCC(O)c2ccccc2)C(C)(C)N1 (stereo not drawn),inconclusive: 1.1 nM
15,CC(C#N)Sc1ncnc2sc3c(c12)CCC3 (stereo not drawn),inconclusive: 5.7 nM
16,CC(=O)Nc1ccc(S(=O)(=O)CCC#N)cc1,inconclusive: 1.1 nM
17,COc1cccc(Cn2c(=O)c(CCc3ccccc3)nc3cnc(N4CCNCC4)nc32)c1,inconclusive: 3.1 nM
18,CCCCn1c(N2CCC(Cc3ccccc3)CC2)nc2c1c(=O)[nH]c(=O)n2C,inconclusive: 1.1 nM
19,CCOc1ccc(-n2c(SCC(N)=O)nc3c(c2=O)SCC3)cc1,inactive
20,CC(C)n1c2ccccc2c2nc3ccccc3nc21,inconclusive: 3.1 nM

row,SMILES,max dye-equivalent concentration
1,Cn1c(SCC(N)=O)nnc1C1CCN(S(=O)(=O)c2ccccc2C(F)(F)F)CC1,inconclusive: 1.5 nM
2,COc1ccc(C2C(C#N)=C(C)NC3=C2C(=O)c2ccccc23)cc1 (stereo not drawn),inconclusive: 5.3 nM
3,Cc1ccc2c(c1)-c1cc(C)nn1C(c1ccc3c(c1)OCO3)N2 (stereo not drawn),active: 28 nM
4,CC(C)OCCCn1c(=S)[nH]c2ncccc2c1=O,inconclusive: 1.4 nM
5,COc1ccc(Cn2c(SCC(=O)NCc3ccco3)nc3ccsc3c2=O)cc1,inactive
6,Cc1cc2cc(CNC(=O)c3ccc4c(c3)OCO4)ccc2n1C,inactive
7,Cc1ccc(Cn2c(SCC(C)C)nc3c2c(=O)n(C)c(=O)n3C)cc1,inactive
8,COc1ccc(CCNC(=O)c2sc(=S)n(C)c2N)cc1,active: 95 nM
9,CCOC(=O)CCn1c(CC(=O)OCC)nc2ccccc21,inconclusive: 2.7 nM
10,COC(=O)c1ccc(-c2sc3nc(N4CCOCC4)c4c(c3c2N)CCCC4)o1,inconclusive: 4.4 nM
11,O=C(COc1ccc2oc(-c3ccccc3)cc(=O)c2c1)NCc1ccco1,inconclusive: 5.8 nM
12,CC(C)c1ccc(S(=O)(=O)c2n[nH]n3c2nc(=O)c2ccccc23)cc1,active: 300 nM
13,CCCCC(CCC(=O)Nc1ccc(C(=O)OC)cc1)C(=O)O (stereo not drawn),inconclusive: 4.4 nM
14,COc1ccc2c(c1OC)C(=O)N1C2SC[C@H]1C(=O)NC1CC(C)(C)NC(C)(C)C1 (stereo partly drawn),inconclusive: 9.1 nM
15,O=C(Cc1ccccc1)Nc1nnc(-c2ccco2)s1,inconclusive: 2.9 nM
16,O=C(CSc1nnc(-c2ccco2)n1CC1CCCO1)N1CCCCC1 (stereo not drawn),inconclusive: 2 nM
17,Cc1cccn2cc(CNc3ccccc3)nc12,inactive
18,Cc1ccc(CN(Cc2cc3cc(C)ccc3[nH]c2=O)C(=O)N2CCOCC2)cc1,inconclusive: 3.8 nM
19,COCCOCC(O)CN1CCN(c2ccccc2)CC1 (stereo not drawn),inactive
20,CC(C)NC(=O)C1CCN(C(=O)c2cc3sccc3n2Cc2ccc(F)cc2)CC1,inconclusive: 2.9 nM

# In a second layout: results already given
row	SMILES	max dye-equivalent concentration
3	O=C(c1ccc2c(c1)OCO2)N1CCc2ccccc2C1	inconclusive: 1.6 nM
4	CCOC(=O)c1cnc2c(C(F)(F)F)cccc2c1N1CCOCC1	inactive
5	COc1ccc(NC(=O)c2oc3ccccc3c2NC(=O)c2ccco2)c(OC)c1	active: 170 nM

# Continuation.

row,SMILES,max dye-equivalent concentration
1,O=C(CSc1nnnn1C1CCCC1)NCc1ccc2c(c1)OCO2,inconclusive: 1.5 nM
2,CCC1CCCCN1CCCNC(=O)C1CCN(S(=O)(=O)N2CCCCC2)CC1 (stereo not drawn),inconclusive: 7.9 nM
3,O=C(NC1CCCCC1)c1cc2nc(-c3ccco3)cc(C(F)(F)F)n2n1,active: 98 nM
4,Cc1c(OCC(F)(F)F)ccnc1CS(=O)c1nc2ccccc2[nH]1 (stereo not drawn),inconclusive: 6 nM
5,Cc1ccccc1-n1c(SCc2ccccn2)nc2n[nH]c(C)c2c1=N,inactive
6,C/C(Sc1nnc(Cc2ccccc2)o1)=C(/O)c1ccccc1,inactive
7,O=C1CC(N2CCSCC2)C(=O)N1CCc1ccccc1 (stereo not drawn),inactive
8,Cc1onc(-c2ccccc2Cl)c1C(=O)Nc1cccc(-c2nc3ncccn3c2C)c1,active: 710 nM
9,Cc1cc(C)c2c(CC(=O)Nc3nccs3)coc2c1,inconclusive: 5.6 nM
10,CCN(CC)CCCN1C(=O)C(O)=C(C(=O)c2cc3cccc(OC)c3o2)C1c1ccncc1 (stereo not drawn),active: 1300 nM
11,Cc1cccc(C)c1OCc1nnc(SCC(=O)Nc2nccs2)n1-c1ccccc1,inconclusive: 1.3 nM
12,CN1CCN(c2ccc3nc(-c4ccc5nc(-c6ccc(O)cc6)[nH]c5c4)[nH]c3c2)CC1,active: 18 nM
13,Cc1nc(SCc2nc3ccccc3[nH]2)c2oc3ccccc3c2n1,inactive
14,Cc1cccc(NCc2nc(SCC(N)=O)n[nH]2)c1,inconclusive: 8.7 nM
15,Cc1nc(N2CCc3ccccc3C2)[nH]c(=O)c1CCC(C)C,inconclusive: 1.1 nM
16,CCCOC(=O)c1sc2nc3c(cc2c1N)C(=O)CCC3,inconclusive: 3.7 nM
17,CC(Nc1cc(=O)n(C)c(=O)[nH]1)c1ccccc1 (stereo not drawn),inconclusive: 2.5 nM
18,O=C(CCn1c(=O)[nH]c2ccccc2c1=O)NCCCN1CCN(c2cccc(Cl)c2)CC1,inconclusive: 1.5 nM
